From the supplement of paper PMC4604168 (melanoma cell lines)
Some of the results follow. Repeats are few or missing, and single values can be far off.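 Imaging used 1,536-well plates; nuclei positive for cleaved PARP by antibody were divided by total DNA-stained nuclei to yield the apoptosis fraction. Doses for screening kept most cells viable, and cell lines differ markedly in resting and induced cleaved-PARP levels.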

How the values were obtained:
Assay in all cases: cleaved PARP positive nuclei fraction relative to DMSO control; melanoma cells; higher = more apoptosis
Conditions in all cases: library dose: low library concentration; 72 h
501Mel = tested on: 501Mel
A101D = tested on: A101D
A2058 = tested on: A2058
A375 = tested on: A375
C32 = tested on: C32
CBRC013 = tested on: CBRC013 (line from a melanoma biopsy)
CBRC014 = tested on: CBRC014 (line from a melanoma biopsy)
CBRC016 = tested on: CBRC016 (line from a melanoma biopsy)
CBRC017 = tested on: CBRC017 (line from a melanoma biopsy)

Compound | cleaved PARP positive nuclei fraction (501Mel) [%] | cleaved PARP positive nuclei fraction (A101D) [%] | cleaved PARP positive nuclei fraction (A2058) [%] | cleaved PARP positive nuclei fraction (A375) [%] | cleaved PARP positive nuclei fraction (C32) [%] | cleaved PARP positive nuclei fraction (CBRC013) [%] | cleaved PARP positive nuclei fraction (CBRC014) [%] | cleaved PARP positive nuclei fraction (CBRC016) [%] | cleaved PARP positive nuclei fraction (CBRC017) [%]
C[As](C)SC[C@H](NC(=O)CC[C@H](N)C(=O)O)C(=O)NCC(=O)O [Darinaparsin] + Cc1cc([N+](=O)[O-])ccc1NS(=O)(=O)c1cc(Cl)ccc1Cl [FH535] (first compound 0.4 µM, partner dose 1 µM) | 41 | 125 | 68.5 | 82.1 | 86.6 | 172 | 108 | 433 | 282
CN(NC(=O)CC(=O)NN(C)C(=S)c1ccccc1)C(=S)c1ccccc1 + O=C(Oc1ccc([N+](=O)[O-])cc1)N1CCC(C(O)(c2ccc3c(c2)OCO3)c2ccc3c(c2)OCO3)CC1 [JZL184] (first compound 0.006 µM, partner dose 1 µM) | 322 | 49 | 150 | 1140 | 33.7 | 508 | 536 | 240 | 136
CCN(CC)CCCCNc1ncc2cc(-c3cc(OC)cc(OC)c3)c(NC(=O)NC(C)(C)C)nc2n1 + O=C(Oc1ccc([N+](=O)[O-])cc1)N1CCC(C(O)(c2ccc3c(c2)OCO3)c2ccc3c(c2)OCO3)CC1 [JZL184] (first compound 0.1 µM, partner dose 1 µM) | 95.3 | 37.3 | 65.8 | 184 | 140 | 75.3 | 78.1 | 74.9 | 69.7
C[As](C)SC[C@H](NC(=O)CC[C@H](N)C(=O)O)C(=O)NCC(=O)O [Darinaparsin] + COc1ccc(COc2ccc(Cc3cnc(N)nc3N)cc2OC)cc1 [GW2580] (first compound 0.4 µM, partner dose 1 µM) | 47.7 | 47.3 | 137 | 74.7 | 143 | 240 | 90.5 | 171 | 82.2
C[As](C)SC[C@H](NC(=O)CC[C@H](N)C(=O)O)C(=O)NCC(=O)O [Darinaparsin] + COc1cc2ncnc(Nc3ccc(Oc4ccccc4)cc3)c2cc1OC [SrcI1] (first compound 0.4 µM, partner dose 2 µM) | 60.4 | 107 | 217 | 107 | 100 | 192 | 95.2 | 69.5 | 80
C[As](C)SC[C@H](NC(=O)CC[C@H](N)C(=O)O)C(=O)NCC(=O)O [Darinaparsin] + CCN(CC)CCCCNc1ncc2cc(-c3cc(OC)cc(OC)c3)c(NC(=O)NC(C)(C)C)nc2n1 [PD173074] (first compound 0.4 µM, partner dose 0.1 µM) | 21.1 | 165 | 85.1 | 20.6 | 97.6 | 176 | 80.8 | 14.7 | 67
COc1cc(Nc2ncc(F)c(Nc3ccc4c(n3)NC(=O)C(C)(C)O4)n2)cc(OC)c1OC [Tamatinib] + Cc1cc(SCc2sc(-c3ccc(C(F)(F)F)c(F)c3)nc2C)ccc1OCC(=O)O [GW0742] (first compound 0.4 µM, partner dose 2 µM) | 20.9 | 59 | 81.2 | 178 | 125 | 53.6 | 85.6 | 41.3 | 77.6
Cn1c(Nc2ccc(C(F)(F)F)cc2)nc2cc(Oc3ccnc(-c4ncc(C(F)(F)F)[nH]4)c3)ccc21 + O=C(Oc1ccc([N+](=O)[O-])cc1)N1CCC(C(O)(c2ccc3c(c2)OCO3)c2ccc3c(c2)OCO3)CC1 [JZL184] (first compound 0.08 µM, partner dose 1 µM) | 64.6 | 64.2 | 213 | 411 | 57.1 | 134 | 90.8 | 109 | 138
O=C(O)C(=O)Nc1sc2c(c1C(=O)O)CCNC2 + O=C(Oc1ccc([N+](=O)[O-])cc1)N1CCC(C(O)(c2ccc3c(c2)OCO3)c2ccc3c(c2)OCO3)CC1 [JZL184] (first compound 1.66667 µM, partner dose 1 µM) | 76.3 | 83.8 | 74.3 | 71.5 | 80.4 | 121 | 71 | 36.2 | 81.5
Cc1cc(SCc2sc(-c3ccc(C(F)(F)F)c(F)c3)nc2C)ccc1OCC(=O)O + O=C1NC(=O)/C(=C/c2ccc(-c3ccc(F)cc3O)o2)S1 [AS252424] (first compound 2 µM, partner dose 1 µM) | 82.6 | 120 | 162 | 135 | 72 | 152 | 102 | 50.1 | 271
O=C(CCCCCCC(=O)Nc1ccccc1)NO [vorinostat] + C/C(O)=C(\C#N)C(=O)Nc1cc(Br)ccc1Br [LFM-A13] (first compound 0.08 µM, partner dose 2 µM) | 52.7 | 35.4 | 101 | 110 | 64.7 | 208 | 90.9 | 108 | 192
O=C(Oc1ccc([N+](=O)[O-])cc1)N1CCC(C(O)(c2ccc3c(c2)OCO3)c2ccc3c(c2)OCO3)CC1 + O=c1cc(-c2cccc3c2Sc2ccccc2S3)oc(N2CCOCC2)c1 [KU55933] (first compound 1 µM, partner dose 1 µM) | 72.9 | 146 | 113 | 169 | 88.2 | 199 | 103 | 45.8 | 83.5
C[C@@H]1CCN(C(=O)CC#N)C[C@@H]1N(C)c1ncnc2[nH]ccc12 + C/C(O)=C(\C#N)C(=O)Nc1cc(Br)ccc1Br [LFM-A13] (first compound 1 µM, partner dose 2 µM) | 51.1 | 259 | 125 | 122 | 115 | 67.2 | 99.8 | 32.2 | 75.7
Cn1nnc2c(C(N)=O)ncn2c1=O [temozolomide] + C/C(O)=C(\C#N)C(=O)Nc1cc(Br)ccc1Br [LFM-A13] (first compound 2 µM, partner dose 2 µM) | 144 | 159 | 61.8 | 86.7 | 37.2 | 98.4 | 217 | 84.7 | 97.2
O=C(O)C(=O)Nc1sc2c(c1C(=O)O)CCNC2 + C/C(O)=C(\C#N)C(=O)Nc1cc(Br)ccc1Br [LFM-A13] (first compound 1.66667 µM, partner dose 2 µM) | 103 | 243 | 644 | 115 | 84.6 | 67.3 | 72.8 | 175 | 68
CN(C)S(=O)(=O)c1ccc2c(c1)/C(=C/c1cc3c([nH]1)CCCC3)C(=O)N2 + Cc1cc(SCc2sc(-c3ccc(C(F)(F)F)c(F)c3)nc2C)ccc1OCC(=O)O [GW0742] (first compound 0.4 µM, partner dose 2 µM) | 50.9 | 188 | 107 | 142 | 130 | 175 | 100 | 87.3 | 107
O=C(CCCCCCC(=O)Nc1ccccc1)NO [vorinostat] + Cc1cc(SCc2sc(-c3ccc(C(F)(F)F)c(F)c3)nc2C)ccc1OCC(=O)O [GW0742] (first compound 0.08 µM, partner dose 2 µM) | 70.7 | 216 | 73.5 | 93.4 | 110 | 125 | 94.8 | 74.5 | 86.3
COc1cc2ncnc(Nc3ccc(Oc4ccccc4)cc3)c2cc1OC + O=C(Oc1ccc([N+](=O)[O-])cc1)N1CCC(C(O)(c2ccc3c(c2)OCO3)c2ccc3c(c2)OCO3)CC1 [JZL184] (first compound 2 µM, partner dose 1 µM) | 139 | 68.5 | 78.9 | 119 | 43.6 | 70.7 | 85.1 | 49.4 | 123
Cc1cc(SCc2sc(-c3ccc(C(F)(F)F)c(F)c3)nc2C)ccc1OCC(=O)O + O=c1cc(-c2cccc3c2Sc2ccccc2S3)oc(N2CCOCC2)c1 [KU55933] (first compound 2 µM, partner dose 1 µM) | 82.1 | 125 | 45.5 | 129 | 94.9 | 134 | 107 | 87 | 151
Cn1c(Nc2ccc(C(F)(F)F)cc2)nc2cc(Oc3ccnc(-c4ncc(C(F)(F)F)[nH]4)c3)ccc21 + C/C(O)=C(\C#N)C(=O)Nc1cc(Br)ccc1Br [LFM-A13] (first compound 0.08 µM, partner dose 2 µM) | 143 | 90.6 | 409 | 696 | 47.2 | 559 | 95 | 48.7 | 97.9
C/C(O)=C(\C#N)C(=O)Nc1cc(Br)ccc1Br + CC(C)CCN1c2nc(Nc3cc(F)c(O)c(F)c3)ncc2N(C)C(=O)C1C [BID1870] (first compound 2 µM, partner dose 0.2 µM) | 42.8 | 182 | 71.6 | 91.2 | 43.4 | 239 | 105 | 168 | 297
O=C(Nc1cccc(Cl)c1)Nc1ncc(CCNc2ncnc3ccsc23)s1 + Cc1cc(SCc2sc(-c3ccc(C(F)(F)F)c(F)c3)nc2C)ccc1OCC(=O)O [GW0742] (first compound 0.0008 µM, partner dose 2 µM) | 150 | 209 | 41.7 | 99 | 288 | 83 | 85 | 90 | 168
C[As](C)SC[C@H](NC(=O)CC[C@H](N)C(=O)O)C(=O)NCC(=O)O [Darinaparsin] + c1cc(-c2cnn3cc(-c4ccc(OCCN5CCCCC5)cc4)cnc23)ccn1 [Dorsomorphin] (first compound 0.4 µM, partner dose 0.4 µM) | 177 | 119 | 56.2 | 48.4 | 97.3 | 580 | 150 | 44 | 35.7
Cc1ccc(NC(=O)c2cccc(N(C)C)c2)cc1NC(=O)c1ccc(O)cc1 + O=C(Oc1ccc([N+](=O)[O-])cc1)N1CCC(C(O)(c2ccc3c(c2)OCO3)c2ccc3c(c2)OCO3)CC1 [JZL184] (first compound 2 µM, partner dose 1 µM) | 88.5 | 213 | 100 | 122 | 52.4 | 110 | 149 | 82.7 | 86.6

Limited to cleaved PARP positive nuclei fraction (CBRC017) [%] and cleaved PARP positive nuclei fraction (C32) [%] (2 entries from above):
Compound	cleaved PARP positive nuclei fraction (CBRC017) [%]	cleaved PARP positive nuclei fraction (C32) [%]
Cn1nnc2c(C(N)=O)ncn2c1=O [temozolomide] + C/C(O)=C(\C#N)C(=O)Nc1cc(Br)ccc1Br [LFM-A13] (first compound 2 µM, partner dose 2 µM)	97.2	37.2
O=C(O)C(=O)Nc1sc2c(c1C(=O)O)CCNC2 + C/C(O)=C(\C#N)C(=O)Nc1cc(Br)ccc1Br [LFM-A13] (first compound 1.66667 µM, partner dose 2 µM)	68	84.6
